# Data published in paper PMC4381077.
# No constants are given. Whether binding was seen depends on the method and setting.
# T1: LARP7 La module (1-208), comprising the LAM and RRM1 regions with an N-terminal extension (human) (UniProt Q4G0J3)
# T1 sequence: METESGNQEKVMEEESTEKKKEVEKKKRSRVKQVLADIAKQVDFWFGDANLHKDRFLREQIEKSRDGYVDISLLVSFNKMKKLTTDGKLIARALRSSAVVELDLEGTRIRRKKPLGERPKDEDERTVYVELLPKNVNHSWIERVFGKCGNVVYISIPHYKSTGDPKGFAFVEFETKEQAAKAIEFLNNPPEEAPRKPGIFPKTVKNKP
# B1: LARP7 C-terminal domain comprising the RRM2 (433-582) (domain or fragment, UniProt Q4G0J3 433-582)
# chain: ANREECRTQEKVNATGPQFVSGVIVKIISTEPLPGRKQVRDTLAAISEVLYVDLLEGDTECHARFKTPEDAQAVINAYTEINKKHCWKLEILSGDHEQRYWQKILVDRQAKLNQPREKKRGTEKLITKAEKIRLAKTQQASKHIRFSEYD
# Target: T1, LARP7 La module (1-208), comprising the LAM and RRM1 regions with an N-terminal extension (human)
# Assay: native gel or EMSA; 32P-5'-labelled HP4 RNA mutated at G312C (50 nM) incubated 20 min at 4°C with both the La module and the C-terminal domain, buffer with 250 mM NaCl; La module held on the 3'-end of the RNA, supershift by the C-terminal domain looked for; both purified
binder,measurement,value
B1,binding,no binding
